These are yes or no findings as the source states them, for the method shown. Binding seen in cells or lysates may run through a third protein. Binding calls can cover weak binding; strength is not graded here.
Target: T1, P55, C-terminal domain of ApHMW1C (tryptic fragment) (Actinobacillus pleuropneumoniae) (UniProt A3N2T3)
T1 sequence: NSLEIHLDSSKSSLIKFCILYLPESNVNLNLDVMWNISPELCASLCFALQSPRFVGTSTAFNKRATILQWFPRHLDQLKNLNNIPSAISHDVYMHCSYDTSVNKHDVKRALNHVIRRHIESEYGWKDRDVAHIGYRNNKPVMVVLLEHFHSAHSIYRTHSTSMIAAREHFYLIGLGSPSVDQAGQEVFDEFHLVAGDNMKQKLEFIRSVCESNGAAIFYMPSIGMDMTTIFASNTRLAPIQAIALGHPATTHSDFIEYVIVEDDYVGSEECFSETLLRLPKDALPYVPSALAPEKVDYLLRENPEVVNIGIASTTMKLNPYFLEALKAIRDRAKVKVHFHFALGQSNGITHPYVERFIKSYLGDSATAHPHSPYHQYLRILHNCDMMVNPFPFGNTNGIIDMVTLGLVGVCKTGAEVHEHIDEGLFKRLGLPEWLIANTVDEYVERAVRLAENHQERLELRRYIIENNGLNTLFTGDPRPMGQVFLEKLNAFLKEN
Experiment: co-purification by chromatography after limited proteolysis; scale-up preparative limited trypsin proteolysis of purified ApHMW1C followed by chromatography; both purified

Substance: P15, N-terminal domain of ApHMW1C (tryptic fragment) (Actinobacillus pleuropneumoniae) (domain or fragment)
- binding: binds

Source: article PMC3012730, “The Actinobacillus pleuropneumoniae HMW1C-Like Glycosyltransferase Mediates N-Linked Glycosylation of the Haemophilus influenzae HMW1 Adhesin” (PLoS ONE, 2010)
